Assay [1] concerns the target synthesized peptide covering Y248-phosphorylated ITSM of human PD-1 (human). Description: ELISA; phosphopeptide coated at 4 μg/ml; hSHP2-Fc 500 ng/ml added with phosphatase inhibitor cocktail, 1 h at RT; HRP anti-Fc tag antibody; with MB; both purified. In general terms: In an ELISA, binding on a coated surface is turned into a signal by an enzyme label.
The target in assay [2] is FGFR1 fused to the C-terminal half of luciferase (UniProt P11362). The experiment in a line: split reporter; split luciferase in 293T co-transfected with EGFR-C-Luc or FGFR1-C-Luc and hSHP2-N-luc; MB for 6 h.
The target in the next assay is FGFR1, 3×FLAG-tagged (UniProt P11362). Description: co-IP; 293T co-transfected; serum-starved 12 h, then complete medium and MB for 2 h; NP40 lysis buffer; IP anti-FLAG, blot anti-EGFR or anti-HA.

These are yes or no findings as the source states them, for the method shown. For part of these data: In cells and extracts the contact can be indirect. Some results given as binding are weak or reduced against the parent protein; the word gives no strength.

With “purified recombinant human SHP2-Fc (from UniProt Q06124 1-593) (Fc fusion)”, the binding entry in assay [1] is “binds”. Consider “human SHP2 fused to the N-terminal half of firefly luciferase, in 293T cells (from UniProt Q06124 1-593) (enzyme)”, for which the binding entry in assay [2] is recorded as “binds”.

Turning to “SHP2, HA-tagged (from UniProt Q06124 1-593) (enzyme)”, in the assay with FGFR1, 3×FLAG-tagged, the binding result was “binds”.

Source of the values: PMC7278553, “Blocking interaction between SHP2 and PD‐1 denotes a novel opportunity for developing PD‐1 inhibitors” (EMBO Molecular Medicine, 2020).
